Data source: PubChem BioAssay AID504764 (Drosophila RNAi Screening Center, 2011)

Screen: 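Knock-downs that raise or lower a Notch target reporter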 (primary screen)
Cells: Drosophila Kc167 cells
Knock-down reagent: long dsRNA against Drosophila genes
Time to read-out: about 5 days (4 days dsRNA, then 24 h after transfection)
Challenge: transfection of constitutively active membrane-tethered Notch lacking the extracellular domain, read 24 h later
Detection: 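Light from a Notch-responsive E(spl)m3 luciferase reporter under active Notch, with control-promoter and no-Notch reporter wells to normalise; raw counts from paired wells a and b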
Scale: induced reporter light, run 1, well a and induced reporter light, run 1, well b: higher = more light from the Notch target reporter with active Notch; control promoter light, run 1, well a and control promoter light, run 1, well b: higher = more light from the viral control promoter (cell number, transfection, viability); uninduced reporter light, run 1, well a: higher = more light from the Notch target reporter without active Notch
Call rule: 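Wells with low control signal or poorly matching duplicates excluded; duplicates averaged; per source plate, z beyond ±2 for induced/control log2 ratio or beyond ±1.8 for induced/uninduced marks a hit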
Calls: active = modifier hit (raised or lowered Notch signal); inactive = not a hit
In all, the deposit lists about 22,000 reagents; shown is an unselected part of those that have a named target and a result. In the full data, 403 (1.9%) got an active call. 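Unnormalised raw counts per well; ratio z-scores behind the hit calls and whether each hit raises or lowers signal are not deposited.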 The record does not give: the amount of reagent.

What did the screen give for Hmt4-20 [DRSC18482]?
induced reporter light, run 1, well a: 39555; induced reporter light, run 1, well b: 52295; control promoter light, run 1, well a: 26125; control promoter light, run 1, well b: 31250; uninduced reporter light, run 1, well a: 10670; Outcome: inactive

With CG32091 [DRSC10141], what was measured?
induced reporter light, run 1, well a: 1.65e5; induced reporter light, run 1, well b: 1.12e5; control promoter light, run 1, well a: 1.55e5; control promoter light, run 1, well b: 10285; uninduced reporter light, run 1, well a: 12015; Outcome: inactive

For CG32091 [DRSC10820], what was measured?
induced reporter light, run 1, well a: 1.61e5; induced reporter light, run 1, well b: 1.29e5; control promoter light, run 1, well a: 2.00e5; control promoter light, run 1, well b: 1.27e5; uninduced reporter light, run 1, well a: 8285; Outcome: inactive

Which result is listed for fd3F (retired record) [DRSC17843]?
induced reporter light, run 1, well a: 17515; induced reporter light, run 1, well b: 19360; control promoter light, run 1, well a: 43180; control promoter light, run 1, well b: 40810; uninduced reporter light, run 1, well a: 5380; Outcome: inactive

What did the screen give for thoc7 [DRSC08512]?
induced reporter light, run 1, well a: 73855; induced reporter light, run 1, well b: 79035; control promoter light, run 1, well a: 1.05e5; control promoter light, run 1, well b: 1.08e5; uninduced reporter light, run 1, well a: 5205; Outcome: inactive

What did the screen give for Drice [DRSC16715]?
induced reporter light, run 1, well a: 1.52e5; induced reporter light, run 1, well b: 1.66e5; control promoter light, run 1, well a: 1.94e5; control promoter light, run 1, well b: 2.21e5; uninduced reporter light, run 1, well a: 11778; Outcome: inactive

For CG18473 [DRSC16381], what does the deposit list?
induced reporter light, run 1, well a: 1.04e5; induced reporter light, run 1, well b: 86865; control promoter light, run 1, well a: 90730; control promoter light, run 1, well b: 1.09e5; uninduced reporter light, run 1, well a: 4510; Outcome: inactive

Which result is listed for Cpr65Ay [DRSC08796]?
induced reporter light, run 1, well a: 2.61e5; induced reporter light, run 1, well b: 2.42e5; control promoter light, run 1, well a: 2.58e5; control promoter light, run 1, well b: 2.28e5; uninduced reporter light, run 1, well a: 20210; Outcome: inactive

For PPO2 [DRSC07102], what was measured?
induced reporter light, run 1, well a: 79535; induced reporter light, run 1, well b: 50700; control promoter light, run 1, well a: 51040; control promoter light, run 1, well b: 49955; uninduced reporter light, run 1, well a: 4650; Outcome: inactive

With eEF5 [DRSC04681], what does the deposit list?
induced reporter light, run 1, well a: 1.60e5; induced reporter light, run 1, well b: 1.40e5; control promoter light, run 1, well a: 95985; control promoter light, run 1, well b: 1.07e5; uninduced reporter light, run 1, well a: 9800; Outcome: active

For CG31729 [DRSC02524], what does the deposit list?
induced reporter light, run 1, well a: 1.90e5; induced reporter light, run 1, well b: 1.94e5; control promoter light, run 1, well a: 1.46e5; control promoter light, run 1, well b: 1.42e5; uninduced reporter light, run 1, well a: 13890; Outcome: inactive

With CG31729 [DRSC02946], what was measured?
induced reporter light, run 1, well a: 1.49e5; induced reporter light, run 1, well b: 1.57e5; control promoter light, run 1, well a: 1.80e5; control promoter light, run 1, well b: 1.78e5; uninduced reporter light, run 1, well a: 13050; Outcome: inactive

With CG2961 [DRSC18246], what was measured?
induced reporter light, run 1, well a: 89185; induced reporter light, run 1, well b: 99165; control promoter light, run 1, well a: 1.84e5; control promoter light, run 1, well b: 1.40e5; uninduced reporter light, run 1, well a: 5740; Outcome: inactive

How did the screen score blp [DRSC15757]?
induced reporter light, run 1, well a: 1.48e5; induced reporter light, run 1, well b: 1.44e5; control promoter light, run 1, well a: 1.54e5; control promoter light, run 1, well b: 1.43e5; uninduced reporter light, run 1, well a: 13140; Outcome: inactive

For CG34204 [DRSC03897], how do the results read?
induced reporter light, run 1, well a: 73135; induced reporter light, run 1, well b: 84780; control promoter light, run 1, well a: 71785; control promoter light, run 1, well b: 76145; uninduced reporter light, run 1, well a: 8010; Outcome: inactive

What is on record for CG11674 [DRSC19414]?
induced reporter light, run 1, well a: 1.93e5; induced reporter light, run 1, well b: 1.46e5; control promoter light, run 1, well a: 2.21e5; control promoter light, run 1, well b: 1.77e5; uninduced reporter light, run 1, well a: 11115; Outcome: inactive

What did the screen give for CG14111 [DRSC10114]?
induced reporter light, run 1, well a: 1.64e5; induced reporter light, run 1, well b: 1.29e5; control promoter light, run 1, well a: 1.94e5; control promoter light, run 1, well b: 1.42e5; uninduced reporter light, run 1, well a: 9010; Outcome: inactive

How did the screen score CG14234 [DRSC19317]?
induced reporter light, run 1, well a: 1.09e5; induced reporter light, run 1, well b: 1.43e5; control promoter light, run 1, well a: 1.24e5; control promoter light, run 1, well b: 1.45e5; uninduced reporter light, run 1, well a: 9375; Outcome: inactive

What is on record for CG14234 [DRSC19589]?
induced reporter light, run 1, well a: 90885; induced reporter light, run 1, well b: 1.11e5; control promoter light, run 1, well a: 1.04e5; control promoter light, run 1, well b: 1.34e5; uninduced reporter light, run 1, well a: 10950; Outcome: inactive

3 entries from above, sorted by “uninduced reporter light, run 1, well a”, low to high:
CG18473 [DRSC16381] | induced reporter light, run 1, well a: 1.04e5; induced reporter light, run 1, well b: 86865; control promoter light, run 1, well a: 90730; control promoter light, run 1, well b: 1.09e5; uninduced reporter light, run 1, well a: 4510; Outcome: inactive
thoc7 [DRSC08512] | induced reporter light, run 1, well a: 73855; induced reporter light, run 1, well b: 79035; control promoter light, run 1, well a: 1.05e5; control promoter light, run 1, well b: 1.08e5; uninduced reporter light, run 1, well a: 5205; Outcome: inactive
Drice [DRSC16715] | induced reporter light, run 1, well a: 1.52e5; induced reporter light, run 1, well b: 1.66e5; control promoter light, run 1, well a: 1.94e5; control promoter light, run 1, well b: 2.21e5; uninduced reporter light, run 1, well a: 11778; Outcome: inactive
